Measured values: publication PMC12183613, “Identification of novel small molecule inhibitors of ETS transcription factors”
Construct, isoform or probe ends are uncertain for at least one entry. For some assays here: A weaker result is weaker than the reference pair of the same experiment. For some assays here: Tags and fusion partners may be left off the protein sequences shown. For some assays here: At least one verdict was read from the data and is not stated in words by the source.

Columns and labels:
[1] = target: T1, ETV6 ETS DNA-binding domain (EDBD) (UniProt P41212); assay: SPR; settings: immobilized EDBD (CM5), DNA titrated, single-cycle kinetics, no Kd given; SPR: 25 mM HEPES pH 7.5, 100 mM NaCl, 1 mM EDTA, 1 mM beta-mercaptoethanol; recombinant protein; residues 334-452; protein details: C-terminal His6
T1 sequence (looked up): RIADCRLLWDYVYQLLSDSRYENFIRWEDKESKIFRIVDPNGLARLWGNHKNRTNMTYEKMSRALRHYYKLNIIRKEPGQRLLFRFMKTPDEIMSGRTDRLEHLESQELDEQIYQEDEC

[2] = target: T1, ETV6 ETS DNA-binding domain (EDBD); assay: NMR; settings: [1H,15N]-HSQC chemical shift mapping, DNA described as consensus DNA site; recombinant protein; residues 334-452; protein details: C-terminal His6
ERG full-length = target: T2, ERG full-length (UniProt P11308); assay: pull-down; settings: Pull-down: 4 C, 30 min, 1 ug poly(dI/dC), 4 mM spermidine, wash in binding buffer 50 mM KCl, 10 mM HEPES pH 7.6, 5 mM MgCl2, 10 mM Tris pH 8, 0.05 mM EDTA, protein translated in vitro, residues 1-479, protein details: FLAG
T2 sequence (looked up): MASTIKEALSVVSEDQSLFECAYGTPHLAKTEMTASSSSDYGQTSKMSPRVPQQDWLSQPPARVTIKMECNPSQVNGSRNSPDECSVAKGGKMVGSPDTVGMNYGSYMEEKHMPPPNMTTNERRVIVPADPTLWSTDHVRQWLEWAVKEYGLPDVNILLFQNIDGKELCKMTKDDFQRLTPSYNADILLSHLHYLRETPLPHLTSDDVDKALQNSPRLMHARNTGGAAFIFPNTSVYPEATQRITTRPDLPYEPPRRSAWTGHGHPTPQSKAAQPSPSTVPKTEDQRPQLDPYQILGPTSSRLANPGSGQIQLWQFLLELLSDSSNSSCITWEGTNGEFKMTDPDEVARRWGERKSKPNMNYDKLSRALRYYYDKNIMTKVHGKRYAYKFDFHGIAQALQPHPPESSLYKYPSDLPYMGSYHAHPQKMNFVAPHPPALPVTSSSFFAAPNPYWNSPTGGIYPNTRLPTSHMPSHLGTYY

FLI1 full-length = target: T3, FLI1 full-length (UniProt Q01543); assay: pull-down; settings: Pull-down: 4 C, 30 min, 1 ug poly(dI/dC), 4 mM spermidine, wash in binding buffer 50 mM KCl, 10 mM HEPES pH 7.6, 5 mM MgCl2, 10 mM Tris pH 8, 0.05 mM EDTA, protein translated in vitro, residues 1-452, protein details: FLAG
T3 sequence (looked up): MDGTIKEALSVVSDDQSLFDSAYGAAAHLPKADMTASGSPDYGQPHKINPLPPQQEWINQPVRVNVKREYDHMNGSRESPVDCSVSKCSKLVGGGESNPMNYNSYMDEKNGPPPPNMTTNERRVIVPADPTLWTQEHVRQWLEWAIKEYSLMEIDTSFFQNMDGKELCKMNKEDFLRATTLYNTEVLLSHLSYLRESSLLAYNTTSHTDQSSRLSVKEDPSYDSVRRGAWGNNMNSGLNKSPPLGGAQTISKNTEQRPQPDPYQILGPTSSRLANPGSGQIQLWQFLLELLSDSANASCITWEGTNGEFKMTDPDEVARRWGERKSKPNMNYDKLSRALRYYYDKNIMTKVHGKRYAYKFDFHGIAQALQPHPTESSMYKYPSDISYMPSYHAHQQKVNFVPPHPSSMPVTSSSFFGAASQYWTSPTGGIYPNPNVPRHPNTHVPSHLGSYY

ETV6 full-length = target: T4, ETV6 full-length (UniProt P41212); assay: pull-down; settings: Pull-down: 4 C, 30 min, 1 ug poly(dI/dC), 4 mM spermidine, wash in binding buffer 50 mM KCl, 10 mM HEPES pH 7.6, 5 mM MgCl2, 10 mM Tris pH 8, 0.05 mM EDTA, protein translated in vitro, residues 1-452, protein details: FLAG
T4 sequence (looked up): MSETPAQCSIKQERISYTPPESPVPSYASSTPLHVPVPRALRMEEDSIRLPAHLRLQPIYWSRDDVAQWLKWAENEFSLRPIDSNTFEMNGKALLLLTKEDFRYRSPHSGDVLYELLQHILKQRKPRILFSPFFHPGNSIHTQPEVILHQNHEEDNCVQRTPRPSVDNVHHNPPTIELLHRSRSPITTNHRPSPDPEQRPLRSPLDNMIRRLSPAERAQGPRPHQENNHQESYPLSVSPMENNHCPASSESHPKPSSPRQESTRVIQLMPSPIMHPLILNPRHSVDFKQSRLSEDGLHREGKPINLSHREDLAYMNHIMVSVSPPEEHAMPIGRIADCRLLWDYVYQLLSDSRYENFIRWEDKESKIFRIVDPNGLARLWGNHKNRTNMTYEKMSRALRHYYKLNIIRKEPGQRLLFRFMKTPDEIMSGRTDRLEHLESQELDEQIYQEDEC

[3] = target: T1, ETV6 ETS DNA-binding domain (EDBD); assay: HTRF; settings: 40 nM protein, 62.5 nM biotinylated oligo; recombinant protein; residues 334-452; protein details: C-terminal His6
JUN = assay: pull-down; settings: with or without 20 uM hit compounds A-D (no inhibition); Pull-down: 4 C, 30 min, 1 ug poly(dI/dC), 4 mM spermidine; wash in binding buffer 50 mM KCl, 10 mM HEPES pH 7.6, 5 mM MgCl2, 10 mM Tris pH 8, 0.05 mM EDTA; protein translated in vitro; protein details: FLAG

“ACCGGAAGTACCGGAAGTACCGGAAGT (double strand) [3x consensus ETS oligonucleotide (SPR, NMR)]”: binds [1]; binds [2].

“ACCGGAAGTACCGGAAGTACCGGAAGT (double strand) [3x consensus ETS oligonucleotide (biotinylated)]”: binds more weakly (ERG full-length; 20 uM hit compounds A-D); binds (ERG full-length; no compound); binds more weakly (FLI1 full-length; 20 uM hit compounds A-D). “ACCGGAAGTACCGGAAGTACCGGAAGT (double strand) [3x consensus ETS oligonucleotide (biotinylated)]”: binds (FLI1 full-length; with or without fragments Fr12, Fr18 (no detectable effect)); binds more weakly (ETV6 full-length; 20 uM hit compounds A-D); binds more weakly (ETV6 full-length; fragment Fr12 (significantly inhibited)). “ACCGGAAGTACCGGAAGTACCGGAAGT (double strand) [3x consensus ETS oligonucleotide (biotinylated)]”: binds (ETV6 full-length; no compound (DMSO)); binds [3].

“TGACTCATGAGTCAGTATGAGTCACAATGACTCACCT (double strand) [3x AP-1 oligonucleotide (biotinylated)]”: binds (JUN).
